Experimental data: PubChem BioAssay AID1159584 (Peter MacCallum Cancer Centre, 2016)
Assay: 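Genes whose loss is lethal only together with E-cadherin loss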 (primary screen). System: human MCF10A breast epithelial cells, parental and CDH1-null. Reagents: siRNA against human genes. Detection: 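Cell viability by CellTiter-Glo ATP luminescence, each line scaled to the mean of mock wells across plates, then CDH1-null over parental ratio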. Reading the numbers: CDH1-null / parental viability ratio: higher = CDH1-null cells survive relatively better than parental.
Shown is a random part of about 18,000 reagents tested. Not all columns of the deposit are shown. Reagent sequences are not shown. Not stated in the record: the amount of reagent, the time to read-out.

target | CDH1-null / parental viability ratio
KLK5 | 0.98
GDPD3 | 0.94
CBX3 | 0.9
ZNFX1 | 0.95
ADCY1 | 0.93
CRISP2 | 1.18
CABYR | 1.1
CELSR1 | 0.82
STXBP1 | 1.19
GPX5 | 0.98
TOMM40 | 1.16
LRRC40 | 1.41
C4BPA | 0.99
PRPS1 | 1.1
TMEM196 | 1.06
OR13A1 | 1.07
GPCPD1 | 0.74
PNPLA2 | 1.24
PTCHD3 | 0.86
YARS2 | 0.96
PUS10 | 1.08
TAS2R20 | 0.9
ID1 | 1.1
BAG5 | 1.16

Reformatted: results already given.
{"target": "PTCHD3", "CDH1-null / parental viability ratio": 0.86}
{"target": "YARS2", "CDH1-null / parental viability ratio": 0.96}
{"target": "PUS10", "CDH1-null / parental viability ratio": 1.08}
